Source: PubChem BioAssay AID504791 (Drosophila RNAi Screening Center, 2011)
The screen tested about 23,000 reagents; shown is an unselected part of those with a known target gene and a result. In the full data, 199 (0.86%) were called active. 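Plate-scaled ratios behind the calls are not deposited; printed light signals are raw; many rows marked increased or decreased are still called inactive.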 Reagents against one gene are numbered here. Names joined by + are all predicted targets of the reagent. The record does not give: the direction of the score.

- Test: 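Genes whose knock-down strengthens or weakens small-RNA reporter silencing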 (primary screen)
- Cell system: Drosophila S2-derived reporter cells
- Reagent: long dsRNA against Drosophila genes, about 150-250 ng dsRNA per well (siRNA assay); about 80-120 ng (miRNA assay)
- Duration: about 5 days (siRNA assay); about 4 days (miRNA assay)
- Conditions: copper sulfate induction of reporters: 25 µM (siRNA assay); 200 mM stated (miRNA assay), 1-2 days before reading
- Detection: 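Per-well ratio of Renilla over firefly light, expressed relative to that plate's average ratio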
- Call rule: 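a well was a first-pass pick when its plate-scaled ratio rose above 1.5 (siRNA assay) or 1.6 (miRNA assay), or dropped below 0.6; a gene counted only if two separate dsRNAs agreed on retest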

After knock-down of Irk3 (GeneID 35131) the results were stable assay Renilla, run 1 (luminescence) = 7291; stable assay firefly, run 1 (luminescence) = 5.44e5; inactive. Silencing of CG31551 (GeneID 318795) #1 resulted in: stable assay Renilla, run 1 (luminescence) = 4867; stable assay firefly, run 1 (luminescence) = 3.27e5; inactive. CG31551 (GeneID 318795) #2 gave stable assay Renilla, run 1 (luminescence) = 3812; stable assay firefly, run 1 (luminescence) = 3.90e5; inactive. Srrm1 (GeneID 39483) gave stable assay Renilla, run 1 (luminescence) = 5750; stable assay firefly, run 1 (luminescence) = 3.15e5; inactive. nebu (GeneID 39458) #1 gave stable assay Renilla, run 1 (luminescence) = 9286; stable assay firefly, run 1 (luminescence) = 3.43e5; inactive. nebu (GeneID 39458) #2 gave stable assay Renilla, run 1 (luminescence) = 6127; stable assay firefly, run 1 (luminescence) = 4.36e5; inactive.

Depletion of eEF1alpha1 (GeneID 36271) resulted in: stable assay Renilla, run 1 (luminescence) = 5015; stable assay firefly, run 1 (luminescence) = 3.84e5; inactive. Depletion of CG2656 (GeneID 40857) resulted in: stable assay Renilla, run 1 (luminescence) = 7211; stable assay firefly, run 1 (luminescence) = 3.50e5; inactive. Rab5 (GeneID 33418) gave stable assay Renilla, run 1 (luminescence) = 13460; stable assay firefly, run 1 (luminescence) = 3.07e5; inactive. With knock-down of Sgsh (GeneID 42266) the results were stable assay Renilla, run 1 (luminescence) = 6678; stable assay firefly, run 1 (luminescence) = 5.23e5; inactive. Against CG5391 (GeneID 42611), the values are stable assay Renilla, run 1 (luminescence) = 8729; stable assay firefly, run 1 (luminescence) = 4.96e5; inactive. After knock-down of GstD7 (GeneID 48340), the screen gave stable assay Renilla, run 1 (luminescence) = 4224; stable assay firefly, run 1 (luminescence) = 6.17e5; inactive.

For tsu (GeneID 35924) the deposit lists stable assay Renilla, run 1 (luminescence) = 9217; stable assay firefly, run 1 (luminescence) = 5.39e5; inactive. For Zip42C.1 (GeneID 35579), the entry reads stable assay Renilla, run 1 (luminescence) = 6718; stable assay firefly, run 1 (luminescence) = 4.05e5; inactive. After knock-down of DAT (GeneID 36849) the results were stable assay Renilla, run 1 (luminescence) = 6563; stable assay firefly, run 1 (luminescence) = 3.12e5; inactive. For CG1662 (GeneID 32296), the values are stable assay Renilla, run 1 (luminescence) = 7862; stable assay firefly, run 1 (luminescence) = 4.14e5; inactive. For NdufV3 (GeneID 32076), the entry reads stable assay Renilla, run 1 (luminescence) = 6322; stable assay firefly, run 1 (luminescence) = 6.40e5; inactive. With knock-down of CG11384 (GeneID 31061) the results were stable assay Renilla, run 1 (luminescence) = 7467; stable assay firefly, run 1 (luminescence) = 3.67e5; inactive.

Silencing of tutl (GeneID 46015) #1 resulted in: stable assay Renilla, run 1 (luminescence) = 6987; stable assay firefly, run 1 (luminescence) = 5.53e5; inactive. tutl (GeneID 46015) #2 showed stable assay Renilla, run 1 (luminescence) = 7383; stable assay firefly, run 1 (luminescence) = 5.96e5; inactive. After knock-down of tutl (GeneID 46015) #3, the record shows stable assay Renilla, run 1 (luminescence) = 6498; stable assay firefly, run 1 (luminescence) = 5.25e5; inactive. He + NimB5 gave stable assay Renilla, run 1 (luminescence) = 4428; stable assay firefly, run 1 (luminescence) = 3.97e5; inactive. For CG7772 (GeneID 32776) the deposit lists stable assay Renilla, run 1 (luminescence) = 7207; stable assay firefly, run 1 (luminescence) = 4.62e5; inactive. With knock-down of Nrx-1 (GeneID 42646), the screen gave miRNA reporter change reporter ratio lowered past the hit cutoff; stable assay Renilla, run 1 (luminescence) = 7198; stable assay firefly, run 1 (luminescence) = 3.19e5; active.

Mo25 (GeneID 39858) showed stable assay Renilla, run 1 (luminescence) = 8721; stable assay firefly, run 1 (luminescence) = 5.15e5; inactive. After knock-down of CG8188 (GeneID 32751), the screen gave stable assay Renilla, run 1 (luminescence) = 3523; stable assay firefly, run 1 (luminescence) = 3.70e5; inactive. CG11404 (GeneID 40474) scored stable assay Renilla, run 1 (luminescence) = 7286; stable assay firefly, run 1 (luminescence) = 3.84e5; inactive. For CG17050 (retired record) (GeneID 36482), the values are stable assay Renilla, run 1 (luminescence) = 5696; stable assay firefly, run 1 (luminescence) = 3.39e5; inactive. Against BaraC (GeneID 246528), the entry reads stable assay Renilla, run 1 (luminescence) = 5646; stable assay firefly, run 1 (luminescence) = 3.57e5; inactive. With knock-down of Tsp42Ec (GeneID 35612), the record shows stable assay Renilla, run 1 (luminescence) = 6640; stable assay firefly, run 1 (luminescence) = 4.01e5; inactive.

With knock-down of DIP-iota (GeneID 33925), the screen gave stable assay Renilla, run 1 (luminescence) = 7239; stable assay firefly, run 1 (luminescence) = 4.44e5; inactive. Against Oatp58Db (GeneID 37544), the entry reads stable assay Renilla, run 1 (luminescence) = 7586; stable assay firefly, run 1 (luminescence) = 5.19e5; inactive. For CG15547 (GeneID 43661), the entry reads stable assay Renilla, run 1 (luminescence) = 6564; stable assay firefly, run 1 (luminescence) = 3.54e5; inactive. Gclc (GeneID 53581) showed miRNA reporter change reporter ratio raised past the hit cutoff; stable assay Renilla, run 1 (luminescence) = 5572; stable assay firefly, run 1 (luminescence) = 3.01e5; inactive. gdrd (GeneID 39599) showed stable assay Renilla, run 1 (luminescence) = 7743; stable assay firefly, run 1 (luminescence) = 4.91e5; inactive.
